Experimental findings from US20070275887A1, “Method of Inhibiting Secretase Activity” (priority 2003, published 2007) are described below.

Amino acid sequences for entries named in this document (tags omitted). A change or cut given only in a name is not applied to a line headed by its entry.
UniProt Q86TM6: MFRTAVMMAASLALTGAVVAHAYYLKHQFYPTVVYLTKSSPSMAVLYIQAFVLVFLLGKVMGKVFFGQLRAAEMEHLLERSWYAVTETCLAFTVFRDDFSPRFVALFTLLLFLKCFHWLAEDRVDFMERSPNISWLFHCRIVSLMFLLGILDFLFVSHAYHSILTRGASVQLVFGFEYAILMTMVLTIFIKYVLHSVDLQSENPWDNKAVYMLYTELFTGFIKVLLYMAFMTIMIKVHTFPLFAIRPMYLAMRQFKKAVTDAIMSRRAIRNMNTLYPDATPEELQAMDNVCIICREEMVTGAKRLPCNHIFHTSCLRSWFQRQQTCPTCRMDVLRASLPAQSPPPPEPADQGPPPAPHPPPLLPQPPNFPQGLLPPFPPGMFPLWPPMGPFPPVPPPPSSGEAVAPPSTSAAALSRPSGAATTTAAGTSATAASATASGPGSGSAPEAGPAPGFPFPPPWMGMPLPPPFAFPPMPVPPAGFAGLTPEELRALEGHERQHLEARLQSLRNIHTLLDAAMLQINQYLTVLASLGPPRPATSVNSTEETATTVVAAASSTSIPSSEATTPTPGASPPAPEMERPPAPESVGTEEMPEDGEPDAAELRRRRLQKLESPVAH

These are yes or no findings as the source states them, for the method shown. For part of these data: In cells and extracts the contact can be indirect. Some entries that bind do so weakly or less than the wild type. For part of these data: Where a sequence is shown, tags or fusion partners need not be part of it.

The target of assay [1] is T1, homocysteine-inducible endoplasmic reticulum stress-inducible ubiquitin-like domain member 1 (Herp), clone from the human cartilage cDNA library in pACT2 (human) (UniProt Q15011).
T1 sequence: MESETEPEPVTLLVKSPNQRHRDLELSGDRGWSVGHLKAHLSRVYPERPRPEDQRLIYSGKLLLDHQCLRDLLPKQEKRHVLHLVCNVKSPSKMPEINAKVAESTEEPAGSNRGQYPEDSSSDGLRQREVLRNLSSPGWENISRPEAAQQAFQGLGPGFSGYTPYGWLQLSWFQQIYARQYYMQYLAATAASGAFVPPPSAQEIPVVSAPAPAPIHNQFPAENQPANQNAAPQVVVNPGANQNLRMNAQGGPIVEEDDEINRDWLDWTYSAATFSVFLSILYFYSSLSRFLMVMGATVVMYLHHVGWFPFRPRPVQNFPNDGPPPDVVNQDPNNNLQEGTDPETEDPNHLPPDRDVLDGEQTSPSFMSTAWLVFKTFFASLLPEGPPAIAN
The assay is described as follows: yeast two-hybrid screen of a human cartilage cDNA library, beta-galactosidase filter assay.

The target in assay [2] is T2, Flag/Herp (pcDNA3-Flag/Herp with Herp from 1 bp to 1176 bp) (human) (UniProt Q15011).
T2 sequence: T1 sequence
Description: co-immunoprecipitation and Western blotting from co-transfected HEK293 cells.

For the next assay, the target named is T3, FLAG-tagged synoviolin (human, UniProt Q86TM6 1-617).
T3 construct: not shown: FLAG tag
The assay is described as follows: co-immunoprecipitation (anti-HA or anti-FLAG) and Western blotting from HEK293T cells. The protocol:
An HA tag was attached to the N-terminal of this gene, which was inserted into a pcDNA3 vector. Next, Ha-tagged Herp, Herp(-bind) and a blank vector were each strongly expressed together with FLAG-tagged synoviolin in HEK293T cells. After 24 hours whole cell extract (WCE) was extracted, expression of each protein was confirmed, and immunoprecipitation was performed with anti-HA antibodies or anti-FLAG antibodies.

With “synoviolin Bait (pGBT9-Syno dTM or pGBT9-Syno Ring) (from UniProt Q86TM6 236-617)”, the binding result in assay [1] is listed as “binds”.
As for “HA/Syno (pcDNA3-HA/Syno with synoviolin from 1 bp to 1854 bp) (from UniProt Q86TM6 1-617)”, the binding entry in assay [2] is reported as “binds”.

B1: HA-tagged Herp (protein, not shown: small tags and cut ends)
chain: T1 sequence
B1: the binding entry in the assay with FLAG-tagged synoviolin is “binds”.
